{"sequences": {"note": "Chains of the proteins cited; added tags and fusions are not shown. Lines headed by an entry give the natural chain unless they say otherwise; changes in a name come on top.", "UniProt P13489": "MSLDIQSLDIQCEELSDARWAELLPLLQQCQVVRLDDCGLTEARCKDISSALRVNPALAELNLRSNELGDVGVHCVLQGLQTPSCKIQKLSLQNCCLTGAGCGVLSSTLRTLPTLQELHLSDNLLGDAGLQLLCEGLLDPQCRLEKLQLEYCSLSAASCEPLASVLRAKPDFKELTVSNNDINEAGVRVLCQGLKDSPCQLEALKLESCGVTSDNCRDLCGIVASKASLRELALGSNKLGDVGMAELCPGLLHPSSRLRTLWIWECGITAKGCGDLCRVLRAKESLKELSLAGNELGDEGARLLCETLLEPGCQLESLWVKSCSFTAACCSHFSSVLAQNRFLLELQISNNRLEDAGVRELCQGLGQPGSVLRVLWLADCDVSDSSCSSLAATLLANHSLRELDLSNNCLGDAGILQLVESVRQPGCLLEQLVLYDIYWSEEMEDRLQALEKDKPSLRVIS", "UniProt P06280": "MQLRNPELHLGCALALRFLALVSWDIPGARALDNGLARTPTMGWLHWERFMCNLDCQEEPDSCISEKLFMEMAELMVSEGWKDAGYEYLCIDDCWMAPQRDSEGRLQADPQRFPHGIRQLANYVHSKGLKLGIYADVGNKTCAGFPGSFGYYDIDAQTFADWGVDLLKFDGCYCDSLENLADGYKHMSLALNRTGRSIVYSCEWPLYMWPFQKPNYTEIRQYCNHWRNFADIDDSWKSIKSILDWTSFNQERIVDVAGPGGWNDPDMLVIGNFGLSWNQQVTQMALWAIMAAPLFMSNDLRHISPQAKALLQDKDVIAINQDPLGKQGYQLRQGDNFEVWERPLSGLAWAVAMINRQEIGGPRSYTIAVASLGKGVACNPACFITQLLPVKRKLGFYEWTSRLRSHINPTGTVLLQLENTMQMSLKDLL", "UniProt P11831": "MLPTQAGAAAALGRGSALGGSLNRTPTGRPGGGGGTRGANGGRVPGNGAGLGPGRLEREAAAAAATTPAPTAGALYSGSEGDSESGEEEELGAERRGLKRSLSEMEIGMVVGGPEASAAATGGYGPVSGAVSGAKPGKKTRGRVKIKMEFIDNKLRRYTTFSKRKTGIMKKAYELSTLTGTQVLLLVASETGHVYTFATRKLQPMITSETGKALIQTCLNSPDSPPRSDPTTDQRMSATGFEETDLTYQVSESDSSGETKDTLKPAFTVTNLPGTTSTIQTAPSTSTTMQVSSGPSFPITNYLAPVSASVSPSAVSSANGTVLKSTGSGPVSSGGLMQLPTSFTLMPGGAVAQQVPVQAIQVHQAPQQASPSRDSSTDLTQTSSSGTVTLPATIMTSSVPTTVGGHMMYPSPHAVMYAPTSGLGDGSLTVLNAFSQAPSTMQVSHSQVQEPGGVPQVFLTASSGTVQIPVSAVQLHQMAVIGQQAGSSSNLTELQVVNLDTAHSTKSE", "UniProt P11388": "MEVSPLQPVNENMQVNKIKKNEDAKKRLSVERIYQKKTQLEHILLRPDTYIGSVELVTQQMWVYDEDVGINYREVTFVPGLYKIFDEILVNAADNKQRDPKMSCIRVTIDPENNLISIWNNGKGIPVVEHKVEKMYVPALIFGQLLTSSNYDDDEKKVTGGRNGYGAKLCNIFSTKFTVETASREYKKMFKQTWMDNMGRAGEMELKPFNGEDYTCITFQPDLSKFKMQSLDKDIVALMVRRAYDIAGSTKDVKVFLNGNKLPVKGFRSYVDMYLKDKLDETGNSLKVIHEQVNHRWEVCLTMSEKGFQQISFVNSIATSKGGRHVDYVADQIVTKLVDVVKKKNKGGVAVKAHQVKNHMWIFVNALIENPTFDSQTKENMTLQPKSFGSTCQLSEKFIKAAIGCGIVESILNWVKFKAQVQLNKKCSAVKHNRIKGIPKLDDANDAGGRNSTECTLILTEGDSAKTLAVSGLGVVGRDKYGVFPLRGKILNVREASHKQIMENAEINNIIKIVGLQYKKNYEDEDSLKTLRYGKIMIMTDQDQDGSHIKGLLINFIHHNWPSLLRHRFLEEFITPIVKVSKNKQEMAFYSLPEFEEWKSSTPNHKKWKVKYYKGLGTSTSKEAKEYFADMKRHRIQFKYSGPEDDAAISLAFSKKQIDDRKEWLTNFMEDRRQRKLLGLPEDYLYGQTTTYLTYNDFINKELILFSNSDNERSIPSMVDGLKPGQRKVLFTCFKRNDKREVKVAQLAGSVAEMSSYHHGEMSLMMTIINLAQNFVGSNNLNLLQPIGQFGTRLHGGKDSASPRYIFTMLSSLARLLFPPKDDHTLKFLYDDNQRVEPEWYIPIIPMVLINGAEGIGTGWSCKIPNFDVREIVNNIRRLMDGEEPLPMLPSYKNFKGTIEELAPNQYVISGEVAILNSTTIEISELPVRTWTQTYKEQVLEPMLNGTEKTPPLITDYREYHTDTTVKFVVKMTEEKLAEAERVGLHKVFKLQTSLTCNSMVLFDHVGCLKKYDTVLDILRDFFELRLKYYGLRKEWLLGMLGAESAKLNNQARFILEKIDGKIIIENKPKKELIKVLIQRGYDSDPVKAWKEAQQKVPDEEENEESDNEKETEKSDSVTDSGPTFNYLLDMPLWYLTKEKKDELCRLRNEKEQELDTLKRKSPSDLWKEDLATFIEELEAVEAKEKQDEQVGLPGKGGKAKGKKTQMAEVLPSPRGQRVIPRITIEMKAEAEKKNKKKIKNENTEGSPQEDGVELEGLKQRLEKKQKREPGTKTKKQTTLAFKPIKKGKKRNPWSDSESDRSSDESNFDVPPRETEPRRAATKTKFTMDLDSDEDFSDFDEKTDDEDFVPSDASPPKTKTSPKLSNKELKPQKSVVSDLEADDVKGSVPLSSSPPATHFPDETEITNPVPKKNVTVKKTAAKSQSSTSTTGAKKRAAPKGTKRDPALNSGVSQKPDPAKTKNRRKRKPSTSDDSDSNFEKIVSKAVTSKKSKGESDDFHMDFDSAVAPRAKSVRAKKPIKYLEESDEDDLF", "UniProt P09661": "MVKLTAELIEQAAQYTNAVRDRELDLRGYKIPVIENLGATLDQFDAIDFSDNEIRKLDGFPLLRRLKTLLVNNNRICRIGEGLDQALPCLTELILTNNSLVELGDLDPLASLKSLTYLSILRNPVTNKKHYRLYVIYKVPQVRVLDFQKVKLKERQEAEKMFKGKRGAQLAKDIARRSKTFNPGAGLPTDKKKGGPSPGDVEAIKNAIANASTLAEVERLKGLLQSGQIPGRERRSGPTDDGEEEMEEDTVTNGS", "UniProt P08579, whole entry": "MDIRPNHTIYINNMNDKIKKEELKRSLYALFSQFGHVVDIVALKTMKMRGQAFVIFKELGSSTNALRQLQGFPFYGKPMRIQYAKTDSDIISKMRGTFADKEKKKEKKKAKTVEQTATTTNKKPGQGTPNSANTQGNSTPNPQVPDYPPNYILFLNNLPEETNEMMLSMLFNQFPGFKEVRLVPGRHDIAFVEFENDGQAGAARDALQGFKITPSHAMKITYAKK", "UniProt P12980": "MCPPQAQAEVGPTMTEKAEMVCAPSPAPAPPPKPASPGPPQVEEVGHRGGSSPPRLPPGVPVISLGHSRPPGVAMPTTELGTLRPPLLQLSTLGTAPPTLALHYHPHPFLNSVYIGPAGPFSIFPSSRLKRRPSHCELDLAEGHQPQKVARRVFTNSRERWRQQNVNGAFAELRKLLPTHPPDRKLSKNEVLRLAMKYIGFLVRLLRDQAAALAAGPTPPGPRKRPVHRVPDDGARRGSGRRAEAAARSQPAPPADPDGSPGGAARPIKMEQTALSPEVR", "UniProt P0C7V9": "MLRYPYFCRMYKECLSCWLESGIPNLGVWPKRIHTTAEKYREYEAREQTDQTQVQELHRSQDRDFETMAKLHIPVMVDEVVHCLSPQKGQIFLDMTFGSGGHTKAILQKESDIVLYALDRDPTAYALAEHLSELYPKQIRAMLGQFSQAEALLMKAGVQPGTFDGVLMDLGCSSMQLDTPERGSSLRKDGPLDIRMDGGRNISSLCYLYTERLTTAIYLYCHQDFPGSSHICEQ", "UniProt P09496": "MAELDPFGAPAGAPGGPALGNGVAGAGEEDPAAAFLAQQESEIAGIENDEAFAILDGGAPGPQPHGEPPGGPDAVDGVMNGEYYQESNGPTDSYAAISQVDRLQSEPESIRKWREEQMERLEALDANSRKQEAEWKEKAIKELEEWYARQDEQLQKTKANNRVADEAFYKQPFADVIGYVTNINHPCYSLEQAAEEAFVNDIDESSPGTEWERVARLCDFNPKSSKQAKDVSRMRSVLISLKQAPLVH", "UniProt P10746": "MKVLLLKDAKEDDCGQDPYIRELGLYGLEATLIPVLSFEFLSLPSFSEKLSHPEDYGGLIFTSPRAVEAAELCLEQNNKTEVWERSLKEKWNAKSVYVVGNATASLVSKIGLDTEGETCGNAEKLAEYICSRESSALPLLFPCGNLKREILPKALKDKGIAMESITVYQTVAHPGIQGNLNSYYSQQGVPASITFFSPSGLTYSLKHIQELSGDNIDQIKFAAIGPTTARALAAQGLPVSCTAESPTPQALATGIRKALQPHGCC", "UniProt P07910": "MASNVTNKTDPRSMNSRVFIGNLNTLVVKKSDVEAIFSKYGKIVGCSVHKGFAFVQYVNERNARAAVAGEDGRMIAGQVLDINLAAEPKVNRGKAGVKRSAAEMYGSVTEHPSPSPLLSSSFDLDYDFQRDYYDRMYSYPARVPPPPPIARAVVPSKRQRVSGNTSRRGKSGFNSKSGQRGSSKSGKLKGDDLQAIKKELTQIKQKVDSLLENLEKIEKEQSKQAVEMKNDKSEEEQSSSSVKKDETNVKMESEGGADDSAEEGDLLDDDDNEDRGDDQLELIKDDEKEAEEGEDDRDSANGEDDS", "UniProt P04080": "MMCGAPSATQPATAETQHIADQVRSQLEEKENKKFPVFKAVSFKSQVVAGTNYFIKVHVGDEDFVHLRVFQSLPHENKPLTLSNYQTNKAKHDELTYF", "UniProt P12036": "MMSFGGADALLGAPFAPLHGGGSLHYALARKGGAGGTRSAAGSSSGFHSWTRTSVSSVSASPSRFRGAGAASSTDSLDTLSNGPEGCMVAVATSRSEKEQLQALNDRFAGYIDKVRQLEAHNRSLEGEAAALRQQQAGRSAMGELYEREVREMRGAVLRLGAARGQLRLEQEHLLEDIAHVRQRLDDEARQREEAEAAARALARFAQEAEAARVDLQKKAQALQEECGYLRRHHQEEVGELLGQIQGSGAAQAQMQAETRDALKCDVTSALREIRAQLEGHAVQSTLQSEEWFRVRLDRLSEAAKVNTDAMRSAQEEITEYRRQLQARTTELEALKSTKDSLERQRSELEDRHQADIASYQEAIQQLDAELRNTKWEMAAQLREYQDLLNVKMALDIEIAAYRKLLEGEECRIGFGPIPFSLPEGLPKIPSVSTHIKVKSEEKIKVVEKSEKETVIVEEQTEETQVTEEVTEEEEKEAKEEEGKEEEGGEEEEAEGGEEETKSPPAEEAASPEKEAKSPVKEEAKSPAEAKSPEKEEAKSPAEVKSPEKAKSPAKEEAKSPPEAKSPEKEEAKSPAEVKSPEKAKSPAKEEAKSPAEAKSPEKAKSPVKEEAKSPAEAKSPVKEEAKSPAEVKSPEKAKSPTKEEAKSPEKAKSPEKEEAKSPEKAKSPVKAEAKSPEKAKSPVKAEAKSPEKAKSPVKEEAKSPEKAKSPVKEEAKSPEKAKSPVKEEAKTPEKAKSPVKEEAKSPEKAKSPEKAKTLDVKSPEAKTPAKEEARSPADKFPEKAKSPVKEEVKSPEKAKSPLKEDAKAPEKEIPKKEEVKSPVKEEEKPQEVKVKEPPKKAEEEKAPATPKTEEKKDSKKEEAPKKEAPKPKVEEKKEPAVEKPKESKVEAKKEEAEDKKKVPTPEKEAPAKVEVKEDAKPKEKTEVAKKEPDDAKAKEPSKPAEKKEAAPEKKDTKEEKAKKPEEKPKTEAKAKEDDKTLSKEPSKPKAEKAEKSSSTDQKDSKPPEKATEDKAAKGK", "UniProt P07384": "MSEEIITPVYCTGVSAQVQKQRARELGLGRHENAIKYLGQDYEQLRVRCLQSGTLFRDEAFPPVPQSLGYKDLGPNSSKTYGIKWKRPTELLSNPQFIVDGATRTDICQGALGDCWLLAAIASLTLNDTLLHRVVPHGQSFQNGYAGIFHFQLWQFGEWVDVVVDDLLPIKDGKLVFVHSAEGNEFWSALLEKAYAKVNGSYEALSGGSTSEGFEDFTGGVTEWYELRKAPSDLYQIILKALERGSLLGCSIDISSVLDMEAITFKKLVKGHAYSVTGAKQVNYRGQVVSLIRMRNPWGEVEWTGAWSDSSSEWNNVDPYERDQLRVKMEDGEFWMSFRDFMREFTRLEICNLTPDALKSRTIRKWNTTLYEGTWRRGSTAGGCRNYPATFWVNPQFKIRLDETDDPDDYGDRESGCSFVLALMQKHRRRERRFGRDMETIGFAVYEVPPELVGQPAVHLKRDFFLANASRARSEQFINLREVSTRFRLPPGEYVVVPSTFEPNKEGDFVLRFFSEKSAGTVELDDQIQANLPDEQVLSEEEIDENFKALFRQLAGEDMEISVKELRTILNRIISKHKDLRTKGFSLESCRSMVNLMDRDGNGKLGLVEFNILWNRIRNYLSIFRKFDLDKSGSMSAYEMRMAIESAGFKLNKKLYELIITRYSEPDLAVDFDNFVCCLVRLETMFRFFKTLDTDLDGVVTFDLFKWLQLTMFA"}, "source": "the supplement of paper PMC12819154", "about": "“High-throughput peptide-centric local stability assay extends protein–ligand identification to membrane proteins, tissues and bacteria” (Nature Structural & Molecular Biology, 2025)", "note": "This is one part of the list. Most entries show no effect beyond the scatter of the controls."}
{"compound": "Cc1nc(Nc2ncc(C(=O)Nc3c(C)cccc3Cl)s2)cc(N2CCN(CCO)CC2)n1 [dasatinib]", "assay": "log2 fold change of tryptic peptide abundance, ligand vs vehicle (limited proteolysis) (log2 ratio); higher = more trypsin-susceptible (destabilized)", "conditions": "ligand concentration: 5 uM; sample: K562 cleared lysate"}
{"target": "PCNA (peptide sequence: DLSHIGDAVVISCAK, peptide start residue: 150) (UniProt P12004)", "log2 fold change": 0.0913}
{"target": "PDHA1 (peptide sequence: VDGMDILCVR, peptide start residue: 254) (UniProt P08559)", "log2 fold change": 0.192}
{"target": "SRP19 (peptide sequence: QEDGSLCLVQFPSRK, peptide start residue: 88) (UniProt P09132)", "log2 fold change": 0.218}
{"target": "RNH1 (peptide sequence: LDDCGLTEARCKDISSALR, peptide start residue: 35) (UniProt P13489)", "log2 fold change": 0.257}
{"target": "GLA (peptide sequence: TPTMGWLHWER, peptide start residue: 39) (UniProt P06280)", "log2 fold change": 0.208}
{"target": "DLD (peptide sequence: ALLNNSHYYHMAHGK, peptide start residue: 90) (UniProt P09622)", "log2 fold change": 0.092}
{"target": "SRF (peptide sequence: IKMEFIDNK, peptide start residue: 146) (UniProt P11831)", "log2 fold change": 0.125}
{"target": "TOP2A (peptide sequence: FTVETASR, peptide start residue: 177) (UniProt P11388)", "log2 fold change": 0.203}
{"target": "SNRPA1 (peptide sequence: SLTYLSILR, peptide start residue: 114) (UniProt P09661)", "log2 fold change": -0.325}
{"target": "ANXA2 (peptide sequence: IRSEFKR, peptide start residue: 303) (UniProt P07355)", "log2 fold change": 0.503}
{"target": "SNRPB2 (peptide sequence: HDIAFVEFENDGQAGAAR, peptide start residue: 187) (UniProt P08579)", "log2 fold change": 0.461}
{"target": "LYL1 (peptide sequence: RRPSHCELDLAEGHQPQK, peptide start residue: 131) (UniProt P12980)", "log2 fold change": -0.464}
{"target": "UniProt P0C7V9 (peptide sequence: SQDRDFETMAK, peptide start residue: 60)", "log2 fold change": 0.0388}
{"target": "ADH5 (peptide sequence: AFELMHSGK, peptide start residue: 358) (UniProt P11766)", "log2 fold change": -0.241}
{"target": "GYPA (peptide sequence: SYISSQTNDTHKR, peptide start residue: 38) (UniProt P02724)", "log2 fold change": -0.356}
{"target": "CLTA (peptide sequence: QEAEWKEK, peptide start residue: 131) (UniProt P09496)", "log2 fold change": -0.326}
{"target": "UROS (peptide sequence: DAKEDDCGQDPYIR, peptide start residue: 8) (UniProt P10746)", "log2 fold change": -0.549}
{"target": "CT45A10 (peptide sequence: SQQEINADIKCQVVK, peptide start residue: 118) (UniProt P0DMU9)", "log2 fold change": 0.0889}
{"target": "SLC25A6 (peptide sequence: GLGDCLVK, peptide start residue: 156) (UniProt P12236)", "log2 fold change": -0.129}
{"target": "HMGN2 (peptide sequence: KAEGDAKGDK, peptide start residue: 5) (UniProt P05204)", "log2 fold change": 0.191}
{"target": "HNRNPC (peptide sequence: LKGDDLQAIKK, peptide start residue: 188) (UniProt P07910)", "log2 fold change": 0.441}
{"target": "SNRNP70 (peptide sequence: REFEVYGPIKR, peptide start residue: 121) (UniProt P08621)", "log2 fold change": 0.281}
{"target": "TPM3 (peptide sequence: CSELEEELK, peptide start residue: 191) (UniProt P06753)", "log2 fold change": 0.53}
{"target": "CSTB (peptide sequence: VHVGDEDFVHLR, peptide start residue: 57) (UniProt P04080)", "log2 fold change": -0.296}
{"target": "NEFH (peptide sequence: SPADKFPEK, peptide start residue: 782) (UniProt P12036)", "log2 fold change": -0.847}
{"target": "ACP2 (peptide sequence: HVADGEDHA, peptide start residue: 415) (UniProt P11117)", "log2 fold change": 1.11}
{"target": "TPR (peptide sequence: LLVALRELGETR, peptide start residue: 553) (UniProt P12270)", "log2 fold change": 1.47}
{"target": "CAPN1 (peptide sequence: QVNYRGQVVSLIR, peptide start residue: 281) (UniProt P07384)", "log2 fold change": 0.56}
